Data reported in PubChem BioAssay AID210 (DTP/NCI, 2004).
The list is a part of this screen's results and no random one: it gathers tests that were run many times, whatever their T/C, doses with no T/C, and many T/C values between a quarter and a half above the control. Further doses and runs are listed elsewhere. T/C gives the treated animals as a percentage of the vehicle group. Some entries give survivors of the animals treated and no T/C: the source holds a T/C of zero for them, seemingly a mark for toxic or unscored doses. Some survivor counts are full or nearly so, which does not show that the dose was tolerated: survival well below the control is almost never listed, so the zero probably covers shortened survival too. Survivors were counted at the toxicity check, usually on the fifth day, unless a day is given; later deaths do not show. Schedule codes are those of the source, taken here to give the interval after Q, in days (D) or hours (H), and the number of doses after X. Some doses were run more than once; the values are given in rising order. For survival time, this PubChem deposit counts one and a half times the control or more as active, and values a quarter to a half above the control carry no call in these data; other NCI protocols may use other cut-offs.

Test system: CD2F1 mice, ip Colon 26 adenocarcinoma, median survival T/C
Experiment: NCI In Vivo Anticancer Drug Screen. Data for tumor model Colon 26 Adenocarcinoma (intraperitoneal) in CD2F1 (CDF1) mice
Settings: T/C endpoint: median survival time, higher T/C = longer survival
Procedure: The antitumor activity of compounds was measured in mice bearing transplantable tumors. Survival or tumor size were measured and the results are expressed as the measurement made in the treated group (T) divided by the measurement made in the vehicle treated control group (C). The tumor model used in this assay is Colon 26 Adenocarcinoma (intraperitoneal) in CD2F1 (CDF1) mice

[1] = dose: 50.0 mg/kg/injection, schedule: Q04DX003 (ip), vehicle: Klucel (hydroxypropylcellulose) (HPC)
[2] = dose: 100.0 mg/kg/injection, schedule: Q04DX003 (ip), vehicle: saline
[3] = dose: 200.0 mg/kg/injection, schedule: Q04DX003 (ip), vehicle: saline

**Q.** What does the source list for `CCOC(=O)C1C2OC(=O)C(C(=O)C2CN(CCCl)CCCl)C1C1CC=C(CC2=CCC(C3C4C(=O)OC(C(CN(CCCl)CCCl)C4=O)C3C(=O)OCC)CC2)CC1` (centres undefined)?
**A.** T/C (dose: 12.5 mg/kg/injection, schedule: Q04DX003 (ip), vehicle: Klucel (hydroxypropylcellulose) (HPC)): 132 % of control; T/C (dose: 25.0 mg/kg/injection, schedule: Q04DX003 (ip), vehicle: Klucel (hydroxypropylcellulose) (HPC)): 139 % of control; T/C [1]: 142 % of control; survivor count (dose: 400.0 mg/kg/injection, schedule: Q04DX003 (ip), vehicle: Klucel (hydroxypropylcellulose) (HPC)): 9 of 10

**Q.** How did the survivor count (dose: 100.0 mg/kg/injection, schedule: Q01DX010 (ip), vehicle: alkali diluted with saline) turn out when `NC(C/[N+]([O-])=N/O)C(=O)O` (centres undefined) was run?
**A.** 8 of 8

**Q.** How did the survivor count (dose: 103.0 mg/kg/injection, schedule: Q04DX003 (oral), vehicle: saline) turn out when `Cc1ncc(CNC(=O)N(CCCl)N=O)c(N)n1` was run?
**A.** 10 of 10 on day 8

**Q.** Which survivor count (dose: 20.0 mg/kg/injection, schedule: Q03DX002 (ip), vehicle: other) does the source give for `COc1cc([C@@H]2c3cc4c(cc3[C@@H](OC3OC5CO[C@@H](c6cccs6)OC5C(O)C3O)[C@H]3COC(=O)[C@H]23)OCO4)cc(OC)c1O` (some centres undefined) here?
**A.** 8 of 8 on day 10

**Q.** For `CC1(C(=O)O)C(O)CCC2(C)C1CCC1CC3CC12CCC3(O)CO` (centres undefined), which survivor count (dose: 400.0 mg/kg/injection, schedule: Q04DX002 (ip), vehicle: distilled water + Tween-80) is on record?
**A.** 10 of 10

**Q.** For `C=CCNc1ccc(C)cc1`, which survivor count (dose: 200.0 mg/kg/injection, schedule: Q04DX003 (ip), vehicle: saline with Tween-80) is on record?
**A.** 4 of 10

**Q.** What does the source list for `COc1cccc2c1C(=O)c1c(O)c3c(c(O)c1C2=O)C[C@@](O)(C(C)=O)C[C@@H]3OC1CC(O)C(O)C(C)O1` (some centres undefined)?
**A.** T/C (dose: 50.0 mg/kg/injection, schedule: Q07DX002 (iv), vehicle: saline): 131 % of control; T/C (dose: 80.0 mg/kg/injection, schedule: Q07DX002 (iv), vehicle: saline): 131 % of control; survivor count (dose: 130.0 mg/kg/injection, schedule: Q07DX002 (iv), vehicle: saline): 9 of 10

**Q.** Which results are given for `CC(=O)OCC(=O)[C@@]12OC(C)(C)O[C@@H]1C[C@H]1[C@@H]3CC(C=O)=C4C=C(OCCCl)CC[C@]4(C)[C@@]3(F)[C@@H](O)C[C@@]12C`?
**A.** survivor count (dose: 12.5 mg/kg/injection, schedule: Q04DX002 (ip), vehicle: Klucel (hydroxypropylcellulose) (HPC)): 10 of 10; survivor count (dose: 25.0 mg/kg/injection, schedule: Q04DX002 (ip), vehicle: Klucel (hydroxypropylcellulose) (HPC)): 10 of 10; survivor count (dose: 50.0 mg/kg/injection, schedule: Q04DX002 (ip), vehicle: Klucel (hydroxypropylcellulose) (HPC)): 10 of 10; survivor count (dose: 100.0 mg/kg/injection, schedule: Q04DX002 (ip), vehicle: Klucel (hydroxypropylcellulose) (HPC)): 10 of 10; survivor count (dose: 200.0 mg/kg/injection, schedule: Q04DX002 (ip), vehicle: Klucel (hydroxypropylcellulose) (HPC)): 10 of 10; survivor count (dose: 400.0 mg/kg/injection, schedule: Q04DX002 (ip), vehicle: Klucel (hydroxypropylcellulose) (HPC)): 10 of 10

**Q.** With `Cc1cc(C)c(-c2cc(O)c(C)cc2O)c(C)c1` as the compound, how does the survivor count (dose: 400.0 mg/kg/injection, schedule: Q04DX003 (ip), vehicle: saline with Tween-80) read?
**A.** 10 of 10

**Q.** Which survivor count (dose: 4.0 mg/kg/injection, schedule: Q04DX003 (ip), vehicle: saline) does the source give for `CO[C@H](C(=O)[C@@H](O)[C@@H](C)O)[C@@H]1Cc2cc3cc(OC4CC(OC5CC(O)C(O)C(C)O5)C(O)C(C)O4)c(C)c(O)c3c(O)c2C(=O)[C@H]1OC1CC(OC2CC(OC3CC(C)(O)C(O)C(C)O3)C(O)C(C)O2)C(O)C(C)O1` (some centres undefined) here?
**A.** 0 of 10

**Q.** Which results are given for `C[C@@]1(CO)[C@H](O)CC[C@@]2(C)[C@H]1CC[C@H]1C[C@@H]3C[C@@]12CC[C@@]3(O)COC(=O)CN`?
**A.** survivor count (dose: 150.0 mg/kg/injection, schedule: Q01DX009 (ip), vehicle: saline + alcohol): 8 of 10; survivor count (dose: 200.0 mg/kg/injection, schedule: Q04DX003 (iv), vehicle: saline): 4 of 10; survivor count (dose: 400.0 mg/kg/injection, schedule: Q04DX003 (iv), vehicle: saline): 0 of 10

**Q.** What does the source list for `COc1cc([C@@H]2c3cc4c(cc3[C@@H](OC3OC5COC(C)OC5C(O)C3O)[C@H]3COC(=O)[C@H]23)OCO4)cc(OC)c1O` (some centres undefined)?
**A.** T/C (dose: 16.0 mg/kg/injection, schedule: Q04DX003 (ip), vehicle: saline): 144 % of control; survivor count (dose: 128.0 mg/kg/injection, schedule: Q04DX003 (ip), vehicle: saline): 0 of 10; survivor count (dose: 256.0 mg/kg/injection, schedule: Q04DX003 (ip), vehicle: saline): 0 of 10; survivor count (dose: 512.0 mg/kg/injection, schedule: Q04DX003 (ip), vehicle: saline): 0 of 10

**Q.** What does the source list for `CN(C)CCNc1ccc(NCCN(C)C)c2c1C(=O)c1ccccc1C2=O`?
**A.** T/C (dose: 5.0 mg/kg/injection, schedule: Q01DX009 (ip), vehicle: acid diluted with saline): 129 % of control; T/C (dose: 20.0 mg/kg/injection, schedule: Q01DX009 (ip), vehicle: acid diluted with saline): 144 % of control; T/C (dose: 40.0 mg/kg/injection, schedule: Q01DX009 (ip), vehicle: acid diluted with saline): 138 % of control; survivor count (dose: 80.0 mg/kg/injection, schedule: Q01DX009 (ip), vehicle: acid diluted with saline): 7 of 10, 8 of 10, 10 of 10

**Q.** With `Cc1cn(C2CC3[O][Sn]([c]4ccccc4)([c]4ccccc4)[O]CC3O2)c(=O)[nH]c1=O` (centres undefined) as the compound, how does the survivor count (dose: 200.0 mg/kg/injection, schedule: Q04DX002 (ip), vehicle: saline) read?
**A.** 7 of 8

**Q.** Which survivor count (dose: 0.7 mg/kg/injection, schedule: Q07DX002 (iv), vehicle: saline with Tween-80) does the source give for `CN(C)CCCNc1c2ccccc2nc2cccc([N+](=O)[O-])c12` here?
**A.** 3 of 10

**Q.** Which survivor count (dose: 32.0 mg/kg/injection, schedule: Q01DX009 (ip), vehicle: acid diluted with saline) does the source give for `CCCNCCNc1ccc(NCCNCCC)c2c1C(=O)c1ccccc1C2=O` here?
**A.** 10 of 10

**Q.** And the survivor count (dose: 64.0 mg/kg/injection, schedule: Q01DX009 (ip), vehicle: acid diluted with saline)?
**A.** 1 of 10

**Q.** For `CC[C@](O)(C(=O)O)c1cc2n(c(=O)c1CO)Cc1cc3ccccc3nc1-2`, which T/C (dose: 50.0 mg/kg/injection, schedule: Q04DX003 (ip), vehicle: saline) is on record?
**A.** 128 % of control

**Q.** And the survivor count [2]?
**A.** 6 of 10

**Q.** And the survivor count [3]?
**A.** 2 of 10

**Q.** Which T/C (dose: 1.25 mg/kg/injection, schedule: Q04DX003 (ip), vehicle: saline) does the source give for `CCC1CN2C(=N1)c1ccccc1-c1cc(Cl)ccc12` (centres undefined) here?
**A.** 125 % of control

**Q.** And the T/C (dose: 20.0 mg/kg/injection, schedule: Q04DX003 (ip), vehicle: saline)?
**A.** 141 % of control

**Q.** And the T/C (dose: 20.0 mg/kg/injection, schedule: Q04DX003 (ip), vehicle: suspension in saline)?
**A.** 125 % of control

**Q.** What about the survivor count (dose: 80.0 mg/kg/injection, schedule: Q04DX003 (ip), vehicle: suspension in saline) of the same compound?
**A.** 8 of 10

**Q.** Which results are given for `Cc1ccc(C(=O)[O][Hg][CH2]C2COC([CH2][Hg][O]C(=O)c3ccc(C)cc3)CO2)cc1` (centres undefined)?
**A.** survivor count [1]: 8 of 10; survivor count (dose: 100.0 mg/kg/injection, schedule: Q04DX003 (ip), vehicle: Klucel (hydroxypropylcellulose) (HPC)): 0 of 10; survivor count (dose: 200.0 mg/kg/injection, schedule: Q04DX003 (ip), vehicle: Klucel (hydroxypropylcellulose) (HPC)): 2 of 10

**Q.** With `CC[C@]1(O)C[C@H]2CN(CCc3c([nH]c4ccccc34)[C@@](C(=O)OC)(c3cc4c(cc3OC)N(C=O)[C@H]3[C@@](O)(C(=O)OC)[C@H](OC(C)=O)[C@]5(CC)C=CCN6CC[C@]43[C@@H]65)C2)C1` as the compound, how does the T/C (dose: 2.1 mg/kg/injection, schedule: Q07DX003 (ip), vehicle: saline) read?
**A.** 136 % of control

**Q.** What about the survivor count (dose: 3.0 mg/kg/injection, schedule: Q07DX003 (ip), vehicle: saline) of the same compound?
**A.** 9 of 10

**Q.** `Nc1nncs1` was tested. Which T/C [2] did it give?
**A.** 125 % of control

**Q.** And the survivor count (dose: 200.0 mg/kg/injection, schedule: Q01DX005 (ip), vehicle: saline)?
**A.** 8 of 10

**Q.** And the T/C [3]?
**A.** 132 % of control

**Q.** And the survivor count (dose: 400.0 mg/kg/injection, schedule: Q01DX005 (ip), vehicle: saline)?
**A.** 6 of 10

**Q.** What about the T/C (dose: 400.0 mg/kg/injection, schedule: Q04DX003 (ip), vehicle: saline) of the same compound?
**A.** 138 % of control

**Q.** What about the survivor count (dose: 800.0 mg/kg/injection, schedule: Q01DX005 (ip), vehicle: saline) of the same compound?
**A.** 2 of 10

**Q.** And the T/C (dose: 800.0 mg/kg/injection, schedule: Q04DX003 (ip), vehicle: saline)?
**A.** 145 % of control
